Data: patent US8361711B2, “Tools and methods useful in characterising the immunotoxic activity of xenobiotic substances” (National Institute of Public Health and the Environment, …, priority 2004, dated 2013)
At least one structure is not confirmed: it was looked up by name or label, or the drawing left a doubt.

Assays:
IFNγ = assay: RT-PCR of endogenous cytokine expression in activated reporter cell lines; assay type: cell-based
Experimental: (§1) In order to correlate the GFP expression data with effects on the expression of endogenous cytokine mRNA, RT-PCR analysis was performed. Non-transfected EL4 and BW5147.3 cells were activated with TPA/ionomycin or anti-CD3 and RNA was prepared. Following cDNA synthesis PCR was performed to detect expression of IL-2, IFNγ, and GAPDH (control). The results generally agree with the GFP expression data. In BW5147.3 cells neither IL-2, nor IFNγ mRNA, could be detected in non-induced cells or after activation. In EL4 cells, IL-2 and IFNγ expression could be induced by TPA/ionomycin, but not anti-CD3.
(§2) For EL4 derived cells basal GFP expression was not affected following treatment with any of the above chemicals. […] This inhibitory effect of Cyclosporine was observed independently in all three laboratories performing such experiments. Furthermore, this inhibition of EGFP expression was detected with all three techniques emplyed for EGFP measurements (i.e. FACS, fluorescence microscope, and Fluorostar).

IL-2 = assay: as above; assay type: cell-based
Experimental: as §1, §2

[1] = system: BW5147.3 derived GFP transfected cell clones; assay: BW5147.3 derived GFP transfected cell clones, GFP expression; assay type: cell-based
Excerpt: BW5147.3 derived GFP transfected cell clones have been also used to test the effects of immunomodulatory compounds.

[2] = system: β-actin promoter dEGFP reporter, EL/pCA-dEGFP/9 (EL4); assay: Prototype cell chip, flow cytometry, control clone; assay type: cell-based; conditions: 24 h
Experimental: (§3) Samples were analyzed in an EPICS® XL-MCL Coulter flow cytometer with Expo v.2 Analysis Software/Expo32 Analysis Software (Applied Cytometry Systems, Sheffield, UK). or any other suitable flow cytometer. Viable and dead cells were gated separately and results were determined based on fluorescence associated with viable cells only. Regions were set in control cells and the same regions were used in induction controls and chemically challenged cells. Percent positive cells and fluorescence intensity were noted and used in further calculations.
(§4) Index numbers were calculated from the median fluorescence intensity of viable cells. Cells incubated in the absence or presence of ionomycin/PMA were analysed separately. Each clone incubated with or without ionomycin/PMA, but without further chemicals/compounds was defined as index number=1, and the index numbers for the other exposures were calculated from this. Experiments with the same exposures were pooled to perform statistical analysis, using SigmaStat 2.03 statistical analysis software (SPSS Inc., Chicago, Ill. USA).
(§5) One way ANOVAs (one way analysis of variance) were performed. In cases where normality failed, we used Kruskal-Wallis One Way Analysis of Variance on Ranks. If the differences between groups were statistically significant (p<0.05), we continued with tests for multiple comparisons. In normally distributed data we used Bonferroni t-test and multiple comparisons versus the control. The control was chosen to be the sample incubated in the presence or absence of ionomycin/PMA only. When normality failed we used […] for multiple comparisons versus the control.
(§6) The following cell lines: EL/pCA-dEGFP/9, EL/p1-5′IL2-dEGFP/6, EL/p2-5′ IL4-dEGFP/2, EL/p1-5′IFNγ-dEGFP/3, and EL/p2-5′IL10-dEGFP/5, obtained by transfection with the DNA constructs containing promoter region derived from β-actin, IL2, IL4, INF-γ, and IL10 were employed to design the prototype cell chip. The prototype cell chip was used to test the activity of different substances.

[3] = system: IL-2 promoter dEGFP reporter, EL/p1-5′IL2-dEGFP/6 (EL4); assay: Prototype cell chip, flow cytometry, IL-2 clone; assay type: cell-based, mouse; conditions: presence of ionomycin/PMA, 24 h
Experimental: as §3, §4, §5, §6

[4] = system: IL-4 promoter dEGFP reporter, EL/p2-5′IL4-dEGFP/2 (EL4); assay: Prototype cell chip, flow cytometry, IL-4 clone; assay type: cell-based, mouse
Experimental: as §3, §4, §5, §6

[5] = system: IL-10 promoter dEGFP reporter, EL/p2-5′IL10-dEGFP/5 (EL4); assay: Prototype cell chip, flow cytometry, IL-10 clone; assay type: cell-based; conditions: 24 h
Experimental: as §3, §4, §5, §6

[6] = system: IFN-γ promoter dEGFP reporter, EL/p1-5′IFNγ-dEGFP/3 (EL4); assay: Prototype cell chip, flow cytometry, IFN-γ clone; assay type: cell-based, mouse; conditions: presence of ionomycin/PMA, 24 h
Experimental: as §3, §4, §5, §6

[7] = presence of ionomycin/PMA, 1:10 dilution
[8] = presence of ionomycin/PMA, 1:100 dilution

## CO[C@H]1C[C@@H]2CC[C@@H](C)[C@@](O)(O2)C(=O)C(=O)N2CCCC[C@H]2C(=O)O[C@H]([C@H](C)C[C@@H]2CC[C@@H](O)[C@H](OC)C2)CC(=O)[C@H](C)/C=C(\C)[C@@H](O)[C@@H](OC)C(=O)[C@H](C)C[C@H](C)/C=C/C=C/C=C/1C [Rapamycin]
IFNγ
  upregulation of expression of IFNγ (RT-PCR): had no effect
IL-2
  upregulation of expression of IL-2 (RT-PCR): had no effect
[1]
  basal GFP expression: did not affect the basal GFP expression
[2]; absence of ionomycin/PMA, 1:10 dilution
  actin clone fluorescence vs control: significant increase
[2]; absence of ionomycin/PMA, 1:100 dilution
  actin clone fluorescence vs control: significant increase
[2]; [7]
  actin clone fluorescence vs control: significant increase
[2]; [8]
  actin clone fluorescence vs control: significant increase
[3]; 1:10 dilution
  IL-2 clone fluorescence vs control: significant increase
[3]; 1:100 dilution
  IL-2 clone fluorescence vs control: significant increase
[3]; highest concentration
  IL-2 clone fluorescence vs control: suppression
[4]; absence of ionomycin/PMA, all tested concentrations
  IL-4 clone fluorescence vs control: significant reduction
[4]; presence of ionomycin/PMA, 1:10 dilution, 24 h
  IL-4 clone fluorescence vs control: not affected
[4]; presence of ionomycin/PMA, 1:100 dilution, 24 h
  IL-4 clone fluorescence vs control: not affected
[4]; presence of ionomycin/PMA, highest concentration, 24 h
  IL-4 clone fluorescence vs control: suppression
[5]; absence of ionomycin/PMA, highest concentration
  IL-10 clone fluorescence vs control: statistically significant decrease in fluorescence
[5]; [7]
  IL-10 clone fluorescence vs control: trend towards an increase
[5]; [8]
  IL-10 clone fluorescence vs control: trend towards an increase
[5]; presence of ionomycin/PMA, highest concentration
  IL-10 clone fluorescence vs control: suppression
[6]; 1:10 dilution
  IFN-γ clone fluorescence vs control: trend towards an increase
[6]; 1:100 dilution
  IFN-γ clone fluorescence vs control: trend towards an increase
[6]; highest concentration
  IFN-γ clone fluorescence vs control: suppressed at the highest concentration, but statistical analysis did not confirrm the trend
